From PubChem BioAssay AID2685 (National Center for Advancing Translational Sciences (NCATS), 2010)
The other results are listed elsewhere or left out. The main result of the screen is listed elsewhere. These columns were measured beside it and carry no call. Most of these compounds were active or inconclusive in the main read-out, so they are no random draw. Potencies come from curve fits of mixed quality, noted in brackets.

Assay: qHTS Assay for Lipid Storage Modulators in Drosophila S3 Cells;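 on cell number change: cells counted by Cell Tracker Red CMTPX staining in the red channel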
Details: BODIPY lipid droplet fluorescence, 18-24 h; for cell number change: measured here: cell count max response, cells fed with added oleic acid
Method in brief: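 Drosophila S3 cells got compounds at several concentrations plus oleic acid (400 uM solution). Laser-scanning cytometry with 488 nm excitation read lipid droplets at 500-530 nm and cells at 575-640 nm. Percent activity was relative to 20 uM Triacsin C.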

[1] = measured here: cell number channel AC50, cells fed with added oleic acid
[2] = measured here: lipid fluorescence (Fed channel) AC50, cells fed with added oleic acid

Row | SMILES | cell number change | AC50 [1] | AC50 [2]
1 | O=C(CSc1ccc2nnc(CCNC(=O)c3ccccc3)n2n1)NC1CCCC1 | -3.24% | – | –
2 | O=C(COC(=O)c1c2c(nc3ccccc13)CCCC2)c1ccc(Br)s1 | -83.3% | 29.1 µM [falling, single point] | –
3 | CN(CC(=O)Nc1ccc(F)cc1)C(=O)COC(=O)c1cccc(N(C)C)c1 | -17.5% | – | 0.651 µM [falling, single point]
4 | CN1CCN(NC(=O)c2ccc(S(=O)(=O)N3CCCCCC3)cc2)CC1 | – | – | 0.731 µM [falling, partial curve, poor fit]
5 | CCO/N=C(/c1nonc1N)N1CCN(c2ccc([N+](=O)[O-])cc2)CC1 | -63.9% | 6.51 µM [falling, partial curve] | 5.8 µM [falling, full curve]
6 | CCn1c(CSCc2ccc(C)cc2)nnc1SCC(=O)N1CCN(c2ccccc2)CC1 | – | 0.731 µM [falling, full curve] | 6.51 µM [falling, single point]
7 | CCCN(CC(=O)Nc1ccccc1C)C(=O)c1ccc(OCc2c(C)noc2C)cc1 | 45.1% | 9.2 µM [rising, partial curve] | –
8 | CCc1ccc(NC(=O)CCc2nnc3ccc(N4CCCC4)nn23)cc1 | 10% | 1.64 µM [rising, partial curve, poor fit] | 6.51 µM [rising, single point]
9 | O=C(N/N=C1/CC2C=CCC12)c1cccs1 (centres undefined) | 15.2% | – | 0.103 µM [rising, full curve, poor fit]
10 | O=c1n(-c2ccccc2)c(=O)n(Cc2ccccn2)n1Cc1ccccn1 | 7.05% | 0.231 µM [falling, full curve] | 0.411 µM [falling, full curve]
11 | CC1CCCC(C)N1C(=O)COC(=O)CNC(=O)c1ccccc1 (centres undefined) | -0.501% | – | –
12 | CCn1c(O)c(N=NC(=O)CNC(=O)Cc2ccccc2)c2ccccc21 | -13.1% | – | –
13 | CCOC(=O)C1=C(CC)Nc2ccccc2N=C1NC(=O)c1oc2ccccc2c1C | 5.78% | 2.31 µM [rising, partial curve, poor fit] | 2.91 µM [rising, partial curve, poor fit]
14 | C=CCN(CC=C)Cc1c(O)ccc2c(=O)c(-c3ccccc3)coc12 | -3.3% | – | 6.51 µM [falling, single point]
15 | CC(C)(C)NC(=O)NC(=O)COC(=O)c1cccc(OC(F)F)c1 | – | – | 5.17 µM [falling, partial curve]
16 | O=C(Cc1ccccc1)Nc1ccccc1C(=O)Nc1ccccc1 | -11.5% | – | 29.1 µM [rising, single point]
17 | O=C(CN(C(=O)CCC(=O)Nc1nccs1)c1ccc(F)cc1)NCc1ccco1 | 14.8% | – | 0.92 µM [rising, full curve, poor fit]
18 | Cc1cc(NC(=O)CCC(=O)N(Cc2ccco2)C(C(=O)NC2CCCCC2)c2cccs2)no1 (centres undefined) | -33.1% | 20.6 µM [falling, partial curve] | –
19 | O=S(=O)(c1ccc(N2CCOCC2)nc1)N1CCOCC1 | -1.17% | – | –
20 | Cc1ccc(OCCC(=O)OCC(=O)c2c(N)n(CC(C)C)c(=O)n(C)c2=O)cc1 | -15.5% | – | 16.4 µM [falling, partial curve]

Row | SMILES | cell number change | AC50 [1] | AC50 [2]
21 | O=C(Nc1cccc(-c2cnc3ccccc3n2)c1)c1ccco1 | – | – | 29.1 µM [falling, partial curve, poor fit]
22 | COc1cccc(CN2CCCN(S(=O)(=O)c3ccc(Br)cc3)CC2)c1 | – | 0.92 µM [falling, single point] | –
23 | COC(=O)c1ccccc1NC(NC(=O)c1ccco1)C(=O)c1ccccc1 (centres undefined) | 37.9% | 18.4 µM [rising, single point] | –
24 | Cc1cc(C)cc(N2C(=O)CC(n3ccnc3)C2=O)c1 (centres undefined) | 5.58% | 6.51 µM [rising, single point] | –
25 | CCCCOc1ccc(S(=O)(=O)N2CCCCC2)cc1 | -5.25% | – | –
26 | O=C(NCC1CC1)c1onc(CSc2ccc(F)c(F)c2)c1C(=O)NCC1CC1 | -15.2% | 4.11 µM [falling, single point] | 2.31 µM [falling, single point]
27 | Nc1ccccc1S(=O)(=O)NC1=NCCCCC1 | -52.1% | 1.16 µM [falling, full curve] | 2.31 µM [falling, full curve, poor fit]
28 | O=C(CCc1nc(-c2ccccc2Cl)no1)Nc1cccnc1 | -11.3% | – | 29.1 µM [falling, single point]
29 | COc1ccc(C2CC(c3ccccc3)=NN2C(=O)CSc2nccc(=O)[nH]2)cc1 (centres undefined) | -19% | 0.651 µM [falling, single point] | –
30 | COc1cc(-c2nc(CN3CCN(c4ncccn4)CC3)c(C)o2)ccc1F | 25.7% | – | –
31 | Cc1c(CCC(=O)NCCCN2CCCC2=O)c(=O)oc2cc(O)ccc12 | 6.15% | – | 4.11 µM [rising, full curve, poor fit]
32 | Cc1ccc2nc(SCC(=O)N3CCC(Cc4ccccc4)CC3)nc(=O)n2c1 | 1.39% | – | 6.51 µM [rising, single point]
33 | CN(Cc1cccs1)C(=O)CSc1nnnn1C | -21.6% | 0.13 µM [falling, full curve, poor fit] | 0.13 µM [falling, full curve, poor fit]
34 | N#C/C(=C(\O)Cc1ccccc1)c1nc2ccccc2[nH]1 | – | 0.731 µM [rising, single point] | 0.651 µM [rising, single point]
35 | CCOC(=O)c1c(NC(=S)Nc2ccc(C)cc2)sc2c1CCC2 | 44.9% | 0.92 µM [rising, partial curve] | 1.46 µM [rising, full curve]
36 | Cc1ccccc1Cn1cnc2ccccc2c1=O | 27.4% | – | 1.16 µM [rising, partial curve]
37 | COCc1ccc(C(=O)N2CCCC(C(=O)c3ccc(SC)cc3)C2)s1 (centres undefined) | -6.03% | – | 4.11 µM [falling, single point]
38 | Cc1ccc(-c2nc3c(c(SCC(=O)Nc4cccc(C(=O)O)c4)n2)Cc2cccc(C)c2O3)cc1 | 18.9% | – | 29.1 µM [rising, single point]
39 | COc1ccc(NC2CCCN(C(=O)c3cc(CC(C)C)nc(N)n3)C2)cc1 (centres undefined) | -11.2% | – | 6.51 µM [falling, single point]
40 | CCCc1cc(=O)[nH]c(SCC(=O)NC(=O)NC2CCCC2)n1 | -2.36% | – | 0.116 µM [falling, full curve, poor fit]

Individual results from the entries so far:
AC50 [2], O=C(CCc1nc(-c2ccccc2Cl)no1)Nc1cccnc1 reads 29.1 µM [falling, single point]
cell number change, CCCCOc1ccc(S(=O)(=O)N2CCCCC2)cc1 reads -5.25%

Further results.

Row | SMILES | cell number change | AC50 [1] | AC50 [2]
41 | CCNc1ccc(C(=O)OCC(=O)N2c3ccccc3NC(=O)C2(C)C)cc1[N+](=O)[O-] | -4.08% | – | 29.1 µM [rising, single point]
42 | Cc1ccn2c(NC3CCCC3)c(-c3ccccn3)nc2c1 | -30.5% | 20.6 µM [falling, single point] | 20.6 µM [falling, partial curve]
43 | Cc1ccc(Nc2ccc(S(=O)(=O)N3CCOCC3)cc2[N+](=O)[O-])c(C)c1 | -28.5% | – | –
44 | CCOC(=O)c1[nH]c2ccc(OC)cc2c1NC(=O)C(C)N1CCC2(CC1)OCCO2 (centres undefined) | -6.34% | – | 0.116 µM [rising, single point]
45 | Cc1ccc(N=Cc2c(C)[nH]n(-c3ccccc3)c2=O)nc1 | 16.2% | – | 0.092 µM [rising, full curve, poor fit]
46 | CC(=NCc1ccco1)c1c(C(F)(F)F)[nH]n(-c2nc3ccccc3s2)c1=O | 109% | 7.31 µM [rising, partial curve] | –
47 | CC(=O)Nc1ccc(S(=O)(=O)NNC(=O)COc2cc(C)ccc2C(C)C)cc1 | – | 0.0326 µM [rising, full curve, poor fit] | 14.6 µM [falling, partial curve, poor fit]
48 | CC1(C2CC2)NC(=O)N(CC(=O)N2CCN(c3ccccc3)CC2)C1=O (centres undefined) | -1.47% | – | 0.0731 µM [rising, full curve, poor fit]
49 | COc1cccc(-c2csc(N3CCN(C(=O)Nc4ccccc4Cl)CC3)n2)c1 | 16.5% | 0.00411 µM [rising, full curve, poor fit] | –
50 | CC1CCCCN1CCCNC(=O)Cn1c(=O)c2cccn2c2ccccc21 (centres undefined) | – | – | 6.51 µM [falling, single point]
51 | Cc1ccc(-c2nnn(CC(=O)N(CC(=O)NC3CCCC3)c3cccc(F)c3)n2)o1 | -2.63% | – | –
52 | O=C(CNS(=O)(=O)c1cccs1)N1CCCC1 | -4.25% | – | 0.82 µM [falling, full curve, poor fit]
53 | CCN(CC)S(=O)(=O)c1cccc(NC(=O)CN(C)C2CCCCC2)c1 | 22.5% | – | 6.51 µM [falling, partial curve, poor fit]
54 | COC(=O)c1nc(-n2nc(C)cc2C)ccc1Cl | 14.6% | 0.651 µM [rising, full curve] | 6.51 µM [rising, single point]
55 | CCc1ccc(NC(=O)C2CC(=O)Nc3ncnn32)cc1 (centres undefined) | 100% | 18.4 µM [rising, single point] | –
56 | O=C(COC(=O)/C=C/c1ccc(F)cc1)Nc1ccccc1-c1ccccc1 | -22.6% | – | 2.31 µM [rising, partial curve]
57 | O=C(O)CC1NC(=O)N(c2ccc(Cl)cc2)C1=O (centres undefined) | 2.79% | – | 6.51 µM [falling, partial curve, poor fit]
58 | CC(=O)NC(Cc1ccccc1F)C(=O)NC1CCN(S(=O)(=O)c2ccccc2)CC1 (centres undefined) | 17.7% | – | –
59 | CC(OC(=O)C1CCCCC1)C(=O)Nc1cccc([N+](=O)[O-])c1 (centres undefined) | -34.2% | 32.6 µM [falling, single point] | –
